Data as given in PubChem BioAssay AID1259425 (University of Nebraska Medical Center, 2018)
The deposit covers about 14,000 reagents; shown is an unselected part. Not all columns of the deposit are shown. The record does not give: the time to read-out.

Test: 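Find knockdowns that reproduce the gene expression pattern seen when KSR1 is lost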 (primary screen)
Cell system: HCT116 human colon cancer cells
Reagents: siRNA pool against human genes, 50 nM siRNA
Detection: 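mRNA of six signature genes measured together by branched-DNA assay after 50 nM siRNA pool, blank removed, divided by geometric mean of two housekeeping genes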
Reading the numbers: BNIP3L mRNA: higher = more BNIP3L transcript after knockdown

ALG10 [SID364004212]
- BNIP3L mRNA, set 1: 0.13

ROGDI [SID364002894]
- BNIP3L mRNA, set 1: 0.0636

PTGDS [SID363992238]
- BNIP3L mRNA, set 1: 0.118

PLPP5 [SID364004000]
- BNIP3L mRNA, set 1: 0.128

ADCY9 [SID363992410]
- BNIP3L mRNA, set 1: 0.0534

Next part, starting with the last 2 of the part before.
PLPP5 [SID364004000]
- BNIP3L mRNA, set 1: 0.128

ADCY9 [SID363992410]
- BNIP3L mRNA, set 1: 0.0534

SMARCC1 [SID363994219]
- BNIP3L mRNA, set 1: 0.0544

DCTN4 [SID363999959]
- BNIP3L mRNA, set 1: 0.0955

TSEN2 [SID364003356]
- BNIP3L mRNA, set 1: 0.114

SENP2 [SID364002151]
- BNIP3L mRNA, set 1: 0.16

RABEPK [SID363996708]
- BNIP3L mRNA, set 1: 0.17

SHMT1 [SID363995173]
- BNIP3L mRNA, set 1: 0.112

LPGAT1 [SID363999161]
- BNIP3L mRNA, set 1: 0.0392
